Experimental data as given in the supplement of paper PMC12819154, “High-throughput peptide-centric local stability assay extends protein–ligand identification to membrane proteins, tissues and bacteria” (Nature Structural & Molecular Biology, 2025).
The list shows a part of the results. Small differences around the control level are noise.

Chains of the proteins cited; added tags and fusions are not shown. Lines headed by an entry give the natural chain unless they say otherwise; changes in a name come on top.
UniProt Q9DBU0, whole entry: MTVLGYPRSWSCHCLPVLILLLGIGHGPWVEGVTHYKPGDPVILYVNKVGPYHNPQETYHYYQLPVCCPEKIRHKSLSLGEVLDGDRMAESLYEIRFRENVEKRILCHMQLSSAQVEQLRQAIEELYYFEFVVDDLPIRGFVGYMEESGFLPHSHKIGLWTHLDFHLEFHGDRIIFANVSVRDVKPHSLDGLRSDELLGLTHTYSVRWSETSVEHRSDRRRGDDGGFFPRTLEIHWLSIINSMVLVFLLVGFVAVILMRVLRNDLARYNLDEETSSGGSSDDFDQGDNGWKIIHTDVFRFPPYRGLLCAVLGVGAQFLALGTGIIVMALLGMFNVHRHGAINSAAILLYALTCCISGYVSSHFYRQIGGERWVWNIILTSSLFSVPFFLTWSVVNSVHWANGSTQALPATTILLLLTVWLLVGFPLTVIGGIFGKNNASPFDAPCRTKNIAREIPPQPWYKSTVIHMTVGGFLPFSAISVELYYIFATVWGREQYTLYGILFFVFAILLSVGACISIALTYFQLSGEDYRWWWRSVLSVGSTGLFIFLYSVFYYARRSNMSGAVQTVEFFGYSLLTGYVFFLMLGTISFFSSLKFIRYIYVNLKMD
UniProt Q9DBF7: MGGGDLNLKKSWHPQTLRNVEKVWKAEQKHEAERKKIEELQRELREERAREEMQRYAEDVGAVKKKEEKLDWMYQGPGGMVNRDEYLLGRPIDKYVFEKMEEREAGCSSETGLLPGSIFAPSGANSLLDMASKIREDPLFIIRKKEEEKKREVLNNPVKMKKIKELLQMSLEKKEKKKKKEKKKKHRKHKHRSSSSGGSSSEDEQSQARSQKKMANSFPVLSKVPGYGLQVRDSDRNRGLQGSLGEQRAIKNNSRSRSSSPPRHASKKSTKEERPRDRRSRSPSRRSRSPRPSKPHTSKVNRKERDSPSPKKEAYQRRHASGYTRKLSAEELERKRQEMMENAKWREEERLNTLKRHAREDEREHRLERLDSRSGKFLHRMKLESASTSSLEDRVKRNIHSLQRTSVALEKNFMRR
UniProt Q9DB27: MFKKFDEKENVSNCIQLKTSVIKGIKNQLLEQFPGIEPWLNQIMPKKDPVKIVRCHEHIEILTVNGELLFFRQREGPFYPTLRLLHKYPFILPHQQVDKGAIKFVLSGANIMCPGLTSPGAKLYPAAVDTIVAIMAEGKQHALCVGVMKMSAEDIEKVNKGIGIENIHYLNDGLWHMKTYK
UniProt Q9DBJ1: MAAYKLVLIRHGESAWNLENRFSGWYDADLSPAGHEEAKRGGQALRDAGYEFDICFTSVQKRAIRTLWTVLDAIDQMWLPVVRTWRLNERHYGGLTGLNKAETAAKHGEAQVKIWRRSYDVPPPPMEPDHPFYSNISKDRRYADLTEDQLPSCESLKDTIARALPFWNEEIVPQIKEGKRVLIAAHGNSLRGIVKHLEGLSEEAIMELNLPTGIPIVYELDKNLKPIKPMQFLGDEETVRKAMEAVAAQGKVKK
UniProt Q9D0S9: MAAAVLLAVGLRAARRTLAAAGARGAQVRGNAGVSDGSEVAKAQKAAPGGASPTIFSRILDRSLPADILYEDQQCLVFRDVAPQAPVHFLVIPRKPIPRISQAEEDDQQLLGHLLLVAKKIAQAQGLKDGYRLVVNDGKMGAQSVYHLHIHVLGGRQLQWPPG
UniProt Q9CYI4: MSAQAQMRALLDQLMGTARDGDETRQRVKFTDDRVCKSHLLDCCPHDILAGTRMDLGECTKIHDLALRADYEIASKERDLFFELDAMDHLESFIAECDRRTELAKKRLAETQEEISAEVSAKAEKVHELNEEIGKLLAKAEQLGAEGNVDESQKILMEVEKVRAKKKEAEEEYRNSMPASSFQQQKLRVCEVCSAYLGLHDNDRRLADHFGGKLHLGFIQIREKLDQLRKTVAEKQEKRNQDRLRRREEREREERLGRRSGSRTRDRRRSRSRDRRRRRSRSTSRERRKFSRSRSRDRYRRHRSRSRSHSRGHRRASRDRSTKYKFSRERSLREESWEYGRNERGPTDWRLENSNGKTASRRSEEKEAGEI
UniProt Q9D8X0: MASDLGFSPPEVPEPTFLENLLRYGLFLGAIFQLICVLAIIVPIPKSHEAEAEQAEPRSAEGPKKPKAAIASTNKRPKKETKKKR
UniProt Q9CZP5: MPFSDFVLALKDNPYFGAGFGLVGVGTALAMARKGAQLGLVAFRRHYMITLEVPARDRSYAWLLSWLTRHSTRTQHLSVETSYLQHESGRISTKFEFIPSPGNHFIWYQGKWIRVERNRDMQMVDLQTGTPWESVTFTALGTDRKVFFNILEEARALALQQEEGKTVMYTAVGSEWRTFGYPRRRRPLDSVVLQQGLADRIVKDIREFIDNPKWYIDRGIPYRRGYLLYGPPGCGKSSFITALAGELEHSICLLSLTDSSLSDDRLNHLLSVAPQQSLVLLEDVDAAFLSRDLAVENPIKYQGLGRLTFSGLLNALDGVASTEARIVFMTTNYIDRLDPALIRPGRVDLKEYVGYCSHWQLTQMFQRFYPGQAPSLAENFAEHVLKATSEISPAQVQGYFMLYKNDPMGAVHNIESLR
UniProt Q9CXR1: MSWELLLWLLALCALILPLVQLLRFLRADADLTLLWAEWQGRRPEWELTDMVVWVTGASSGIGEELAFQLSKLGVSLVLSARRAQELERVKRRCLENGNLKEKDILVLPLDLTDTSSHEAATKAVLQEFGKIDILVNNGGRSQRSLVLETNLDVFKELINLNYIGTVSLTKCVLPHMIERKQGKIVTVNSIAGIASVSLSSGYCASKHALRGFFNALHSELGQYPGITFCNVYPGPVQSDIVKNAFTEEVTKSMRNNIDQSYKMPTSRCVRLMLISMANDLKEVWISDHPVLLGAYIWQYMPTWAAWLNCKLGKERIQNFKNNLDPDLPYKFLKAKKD
UniProt Q9CZY3: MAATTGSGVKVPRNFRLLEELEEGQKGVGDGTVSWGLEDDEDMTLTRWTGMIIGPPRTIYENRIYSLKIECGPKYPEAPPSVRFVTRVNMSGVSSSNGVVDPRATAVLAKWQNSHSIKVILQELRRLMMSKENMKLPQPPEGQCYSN
UniProt Q9DC29: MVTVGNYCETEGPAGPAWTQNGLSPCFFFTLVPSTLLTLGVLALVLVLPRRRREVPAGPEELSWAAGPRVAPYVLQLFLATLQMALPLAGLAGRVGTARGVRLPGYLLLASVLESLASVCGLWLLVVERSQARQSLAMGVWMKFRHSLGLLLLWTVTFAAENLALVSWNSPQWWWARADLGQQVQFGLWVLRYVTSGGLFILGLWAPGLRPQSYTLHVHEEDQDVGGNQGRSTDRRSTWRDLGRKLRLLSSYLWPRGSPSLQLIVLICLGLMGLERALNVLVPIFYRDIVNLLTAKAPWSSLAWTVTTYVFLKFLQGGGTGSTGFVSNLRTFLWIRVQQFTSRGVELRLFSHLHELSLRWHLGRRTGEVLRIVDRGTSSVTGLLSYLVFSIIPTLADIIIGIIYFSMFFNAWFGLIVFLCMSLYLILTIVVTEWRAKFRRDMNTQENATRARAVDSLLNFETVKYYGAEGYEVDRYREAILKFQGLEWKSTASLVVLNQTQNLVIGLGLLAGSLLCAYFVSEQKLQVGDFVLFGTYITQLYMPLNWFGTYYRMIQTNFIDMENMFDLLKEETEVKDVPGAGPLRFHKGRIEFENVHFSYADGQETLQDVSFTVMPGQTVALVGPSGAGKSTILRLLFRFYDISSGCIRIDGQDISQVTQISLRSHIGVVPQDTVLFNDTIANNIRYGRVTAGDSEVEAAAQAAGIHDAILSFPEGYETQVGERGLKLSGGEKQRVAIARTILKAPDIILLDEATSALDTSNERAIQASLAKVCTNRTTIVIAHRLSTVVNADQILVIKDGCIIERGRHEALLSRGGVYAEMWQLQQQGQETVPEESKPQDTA
UniProt Q9D816: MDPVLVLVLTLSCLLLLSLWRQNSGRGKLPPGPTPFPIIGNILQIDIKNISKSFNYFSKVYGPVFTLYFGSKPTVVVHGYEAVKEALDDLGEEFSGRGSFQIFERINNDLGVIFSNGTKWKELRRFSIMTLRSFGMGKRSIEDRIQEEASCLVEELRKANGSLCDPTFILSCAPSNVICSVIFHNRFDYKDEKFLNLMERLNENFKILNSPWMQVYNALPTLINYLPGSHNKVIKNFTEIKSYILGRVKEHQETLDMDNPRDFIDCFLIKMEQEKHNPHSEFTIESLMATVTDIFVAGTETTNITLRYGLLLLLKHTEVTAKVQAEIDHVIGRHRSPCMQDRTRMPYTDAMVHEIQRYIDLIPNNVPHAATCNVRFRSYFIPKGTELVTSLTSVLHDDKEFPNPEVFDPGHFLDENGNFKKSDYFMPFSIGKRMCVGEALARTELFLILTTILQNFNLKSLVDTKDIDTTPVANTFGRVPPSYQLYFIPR
UniProt Q9D6Z1: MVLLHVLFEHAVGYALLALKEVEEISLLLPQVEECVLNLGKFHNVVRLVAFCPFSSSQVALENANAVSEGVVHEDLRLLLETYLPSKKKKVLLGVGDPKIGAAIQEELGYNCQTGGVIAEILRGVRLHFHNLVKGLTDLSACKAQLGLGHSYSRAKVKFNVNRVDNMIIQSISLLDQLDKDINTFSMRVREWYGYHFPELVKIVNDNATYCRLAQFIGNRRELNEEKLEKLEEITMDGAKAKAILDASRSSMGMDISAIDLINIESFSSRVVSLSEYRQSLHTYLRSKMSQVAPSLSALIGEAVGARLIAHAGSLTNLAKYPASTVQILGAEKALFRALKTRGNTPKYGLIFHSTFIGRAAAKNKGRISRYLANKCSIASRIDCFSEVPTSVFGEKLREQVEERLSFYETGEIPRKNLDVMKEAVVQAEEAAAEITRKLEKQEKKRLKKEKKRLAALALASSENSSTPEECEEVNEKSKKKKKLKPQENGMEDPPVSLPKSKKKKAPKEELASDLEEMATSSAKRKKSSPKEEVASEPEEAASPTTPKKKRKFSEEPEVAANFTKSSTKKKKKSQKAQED
UniProt Q9D8B1: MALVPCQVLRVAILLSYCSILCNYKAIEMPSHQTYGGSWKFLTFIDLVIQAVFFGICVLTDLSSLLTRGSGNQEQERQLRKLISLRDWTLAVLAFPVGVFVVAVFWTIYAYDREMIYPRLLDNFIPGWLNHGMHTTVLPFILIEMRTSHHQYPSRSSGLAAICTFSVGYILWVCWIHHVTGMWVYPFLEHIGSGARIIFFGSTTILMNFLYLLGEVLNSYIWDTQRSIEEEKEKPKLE
UniProt Q9CZ30, whole entry, looked up: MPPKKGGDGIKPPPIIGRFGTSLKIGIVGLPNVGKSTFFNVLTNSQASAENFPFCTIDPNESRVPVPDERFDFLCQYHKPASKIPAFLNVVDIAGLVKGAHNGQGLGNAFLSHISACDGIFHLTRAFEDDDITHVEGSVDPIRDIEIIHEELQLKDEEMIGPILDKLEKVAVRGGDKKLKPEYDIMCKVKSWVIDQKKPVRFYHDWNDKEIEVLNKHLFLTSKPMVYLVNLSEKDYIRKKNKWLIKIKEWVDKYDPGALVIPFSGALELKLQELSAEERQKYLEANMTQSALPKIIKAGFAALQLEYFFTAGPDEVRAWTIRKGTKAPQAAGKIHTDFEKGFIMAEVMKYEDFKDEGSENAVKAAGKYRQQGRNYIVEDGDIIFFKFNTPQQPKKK
UniProt Q9D1D4: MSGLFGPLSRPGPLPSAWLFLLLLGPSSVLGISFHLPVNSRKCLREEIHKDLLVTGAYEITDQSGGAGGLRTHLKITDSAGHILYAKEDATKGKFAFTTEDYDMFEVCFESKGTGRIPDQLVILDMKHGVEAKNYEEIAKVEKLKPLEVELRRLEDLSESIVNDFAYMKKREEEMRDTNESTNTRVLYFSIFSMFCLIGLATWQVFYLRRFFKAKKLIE
UniProt Q9D8B4: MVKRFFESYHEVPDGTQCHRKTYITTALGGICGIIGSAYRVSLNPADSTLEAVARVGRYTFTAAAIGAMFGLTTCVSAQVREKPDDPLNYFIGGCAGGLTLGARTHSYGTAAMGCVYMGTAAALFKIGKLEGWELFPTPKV
UniProt Q9D3D9: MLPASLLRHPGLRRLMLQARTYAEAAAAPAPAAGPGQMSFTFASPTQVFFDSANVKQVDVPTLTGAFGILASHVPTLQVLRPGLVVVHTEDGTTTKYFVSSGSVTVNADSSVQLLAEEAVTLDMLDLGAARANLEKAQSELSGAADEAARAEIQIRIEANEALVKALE
UniProt Q9D8B3: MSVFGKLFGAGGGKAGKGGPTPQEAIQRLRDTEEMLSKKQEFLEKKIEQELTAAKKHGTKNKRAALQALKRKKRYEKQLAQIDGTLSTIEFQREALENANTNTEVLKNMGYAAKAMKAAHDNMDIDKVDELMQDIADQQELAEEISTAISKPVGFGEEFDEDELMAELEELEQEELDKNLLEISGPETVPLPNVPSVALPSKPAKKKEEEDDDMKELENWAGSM
UniProt Q9CXX9: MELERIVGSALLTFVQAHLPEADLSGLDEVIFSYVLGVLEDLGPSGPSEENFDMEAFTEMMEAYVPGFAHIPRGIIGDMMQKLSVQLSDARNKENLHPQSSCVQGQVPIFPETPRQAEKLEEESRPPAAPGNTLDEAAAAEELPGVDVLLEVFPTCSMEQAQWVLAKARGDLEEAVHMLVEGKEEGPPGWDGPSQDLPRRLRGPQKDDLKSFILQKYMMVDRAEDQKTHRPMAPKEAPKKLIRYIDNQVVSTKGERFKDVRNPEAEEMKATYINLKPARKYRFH

Compound: CN[C@@H]1C[C@H]2O[C@@](C)([C@@H]1OC)n1c3ccccc3c3c4c(c5c6ccccc6n2c5c31)C(=O)NC4 [staurosporine]
Experiment: log2 fold change of pooled soluble protein (PISA), ligand vs vehicle (log2 ratio); higher = more thermally stabilized
Settings: ligand concentration: 20 uM; assay format: PISA pool 52.9/55.5/58.6 C

Target | log2 fold change of pooled soluble protein
UniProt Q9DAV9 | 0.148
UniProt Q9DBT9 | 0.0501
UniProt Q9DBE0 | 0.0659
UniProt Q9CXL3 | -0.0307
UniProt Q9DBR0 | -0.0305
UniProt Q9DBU0 | -0.00849
UniProt Q9DBF7 | 0.123
UniProt Q9CXZ1 | -0.0266
UniProt Q9D7N9 | -0.0455
UniProt Q9DB27 | -0.0387
UniProt Q9DBJ1 | -0.0731
UniProt Q9DBD0 | 0.0652
UniProt Q9D0S9 | -0.0762
UniProt Q9D168 | 0.071
UniProt Q9DC37 | 0.0545
UniProt Q9DB15 | 0.0891
UniProt Q9DBH0 | -0.135
UniProt Q9CYI4 | 0.173
UniProt Q9CZ42 | -0.135
UniProt Q9CZB3 | -0.042
UniProt Q9D8X0 | 0.198
UniProt Q9CY64 | -0.0156
UniProt Q9CZP5 | 0.00322
UniProt Q9D7A8 | 0.0847

A portion of the results above:
Target | log2 fold change of pooled soluble protein
UniProt Q9DBJ1 | -0.0731
UniProt Q9DBD0 | 0.0652
UniProt Q9D0S9 | -0.0762
UniProt Q9D168 | 0.071

The listing continues.

Target | log2 fold change of pooled soluble protein
UniProt Q9DAR7 | 0.0119
UniProt Q9CXR1 | 0.56
UniProt Q9D8N0 | -0.0927
UniProt Q9DBS5 | -0.106
UniProt Q9D9K3 | -0.0128
UniProt Q9CY16 | 0.17
UniProt Q9DAM7 | -0.175
UniProt Q9D0F3 | -0.066
UniProt Q9CZ28 | 0.0199
UniProt Q9D0R2 | 0.0131
UniProt Q9D8Z6 | -0.215
UniProt Q9D9M5 | 0.0213
UniProt Q9CZY3 | -0.215
UniProt Q9D824 | -0.165
UniProt Q9DBW0 | 0.0309
UniProt Q9D0N8 | -0.0191
UniProt Q9DC29 | 0.00488
UniProt Q9D0K2 | -0.611
UniProt Q9CZX8 | 0.115
UniProt Q9D816 | 0.478
UniProt Q9D6Z1 | 0.264
UniProt Q9DBG6 | -0.0863
UniProt Q9D8B1 | 0.354
UniProt Q9DC16 | -0.0519

Target | log2 fold change of pooled soluble protein
UniProt Q9D1G5 | 0.00654
UniProt Q9CZ30 | -0.102
UniProt Q9D1Q6 | -0.0584
UniProt Q9D4H2 | 0.0994
UniProt Q9CYW4 | 0.0218
UniProt Q9D1D4 | -0.149
UniProt Q9D8B4 | 0.325
UniProt Q9D3D9 | -0.0763
UniProt Q9D1I5 | -0.0344
UniProt Q9DB94 | 0.386
UniProt Q9DBH5 | -0.0395
UniProt Q9D1J3 | -0.114
UniProt Q9D8T4 | 0.174
UniProt Q9D1J1 | 0.133
UniProt Q9D023 | 0.233
UniProt Q9D8Y0 | 0.0108
UniProt Q9CZN7 | -0.00775
UniProt Q9D8B3 | 0.0256
UniProt Q9CZR2 | 0.146
UniProt Q9D1P4 | -0.026
UniProt Q9D6J5 | -0.0501
UniProt Q9CYS6 | -0.324
UniProt Q9DB29 | -0.0446
UniProt Q9CXX9 | 0.0201
